Record: PubChem BioAssay AID1224826 (NIAID, 2016)

Aim: 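Genes that change LPS-induced Tnf promoter activity in mouse macrophages when knocked down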 (primary screen)
Cell system: RAW264.7 G9 macrophages from mouse bearing reporters for p65 (GFP) and the Tnf promoter (mCherry)
Reagents: siRNA pool against mouse genes, 100 nM
Time to read-out: 16 h of LPS stimulation, after 2 days of siRNA transfection
Treatment: bacterial lipopolysaccharide (Salmonella minnesota R595), 10 ng/ml
Measurement: 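Nuclear mCherry signal of the Tnf promoter reporter measured by imaging after background removal, scaled to each plate median and turned into robust z-scores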
Direction: Tnf reporter robust z-score: higher = stronger Tnf promoter reporter signal after LPS; Tnf reporter intensity: higher = stronger Tnf promoter reporter signal
Rule for the call: 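Called active when robust z-score is at most -1.3, matching the median of the Tlr4 knock-down control, or over 3; control wells and wells with under 50 cells never active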
Meaning of the calls: active = Tnf reporter clearly lowered or raised; inactive = no clear change in Tnf reporter
In all, the deposit lists about 17,000 reagents; this is a part drawn at random. About 1,110 of all reagents (6.6%) count as active. 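Active means lowered or raised reporter signal; replicate intensities are raw and not normalised per plate.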 A number with no mark means an inactive call. Reagents against one gene are numbered here. Reagent sequences are not shown.

Gene | pool no. | Tnf reporter robust z-score | fewer than 50 cells in well | Tnf reporter intensity, replicate 1 | Tnf reporter intensity, replicate 2
Fbxo38 (GeneID 107035) | 1 | 2.46 | enough cells in well | 382 | 297
Rrp8 (GeneID 101867) | 1 | 1.86 | enough cells in well | 256 | 172
Dnai3 (GeneID 242253) | 1 | – | fewer than 50 cells per well; well left out of calls | 223 | 55
Dpm1 (GeneID 13480) | 1 | -0.61 | enough cells in well | 187 | 160
Rtl3 (GeneID 213436) | 1 | – | fewer than 50 cells per well; well left out of calls | 196 | 56.8
Foxd3 (GeneID 15221) | 1 | -0.54 | enough cells in well | 210 | 192
Or5p60 (GeneID 258492) | 1 | 1.82 | enough cells in well | 152 | 199
Zfpm1 (GeneID 22761) | 1 | -1.07 | enough cells in well | 48.8 | 79.5

Just “Tnf reporter intensity, replicate 2” (3 entries from above):
Rrp8 (GeneID 101867): 172
Dnai3 (GeneID 242253): 55
Dpm1 (GeneID 13480): 160

Continued.
Gene | pool no. | Tnf reporter robust z-score | fewer than 50 cells in well | Tnf reporter intensity, replicate 1 | Tnf reporter intensity, replicate 2
A930006J02Rik (retired record) (GeneID 77790) | 1 | -0.66 | enough cells in well | 134 | 118
Or13a17 (GeneID 18344) | 1 | -0.28 | enough cells in well | 88.6 | 105
Krt72 (GeneID 105866) | 1 | -0.35 | enough cells in well | 206 | 142
Ahi1 (GeneID 52906) | 1 | -0.09 | enough cells in well | 205 | 176
Or5k1 (GeneID 259002) | 1 | 0.06 | enough cells in well | 188 | 121
Mageb2 (GeneID 17146) | 1 | -1.13 | enough cells in well | 129 | 80.3
Erich5 (GeneID 239368) | 1 | -0.09 | enough cells in well | 191 | 211
Cpsf4 (GeneID 54188) | 1 | -1.26 | enough cells in well | 113 | 94.3
Tspan7 (GeneID 21912) | 1 | 0.55 | enough cells in well | 260 | 169
Eqtn (GeneID 67753) | 1 | -0.79 | enough cells in well | 154 | 53.9
Fhl4 (GeneID 14202) | 1 | -0.32 | enough cells in well | 206 | 132
Adam32 (GeneID 353188) | 1 | -0.85 | enough cells in well | 125 | 114
Nap1l5 (GeneID 58243) | 1 | 0.33 | enough cells in well | 207 | 143
Arl4d (GeneID 80981) | 1 | -0.32 | enough cells in well | 189 | 86.9
Arl4d (GeneID 80981) | 2 | -0.35 | enough cells in well | 161 | 136
C3 (GeneID 12266) | 1 | -0.51 | enough cells in well | 161 | 275
